Laboratory results taken from patent publication US10456414B2, “Methods for treating HCV” (priority 2011, dated 2019).
At least one structure is not confirmed: it was looked up by name or label, or the drawing left a doubt.

How the values were obtained:
HCV genotype 1a replicon = assay: Antiviral combination studies with Compound 10, MacSynergy II; details: in combination with Compound 10
[1] = test system: NS5B S282T mutant replicons; format: cell-based, HCV; details: range over genotypes

SMILES | Interaction (HCV genotype 1a replicon) | fold increase in EC50 for S282T compared to the wild-type [1]
Fc1ccccc1-c1nc2ccn(Cc3ccc(-c4ccc(C(F)(F)F)cc4C(F)(F)F)nn3)cc-2n1 [Compound 1, 5-((6-(2,4-bis(trifluoromethyl)phenyl)pyridazin-3-yl)methyl)-2-(2-fluorophenyl)-5H-imidazo[4,5-c]pyridine] | Additive | 
COC(=O)N[C@H](C(=O)N1CC2(CC2)C[C@H]1c1ncc(-c2ccc3c(c2)C(F)(F)c2cc(-c4ccc5nc([C@@H]6[C@H]7CC[C@H](C7)N6C(=O)[C@@H](NC(=O)OC)C(C)C)[nH]c5c4)ccc2-3)[nH]1)C(C)C [Compound 6, (1-{3-[6-(9,9-Difluoro-7-{2-[5-(2-methoxycarbonylamino-3-methyl-butyryl)-5-aza-spiro[2.4]hept-6-yl]-3H-imidazol-4-yl}-9H-fluoren-2-yl)-1H-benzoimidazol-2-yl]-2-aza-bicyclo[2.2.1]heptane-2-carbonyl}-2-methyl-propyl)-carbamic acid methyl ester] | Additive | No significant differences
